No constants are given. Whether binding was seen depends on the method and setting. For some assays here: Binding seen in cells or lysates may run through a third protein. Some entries that bind do so weakly or less than the wild type. Tags and fused reporters may be left off the sequences shown.
T1: FoDLAT-MBP fusion protein (Fusarium oxysporum f. sp. lycopersici strain 4287)
T1 sequence (chain, crotonyl-lysine at K148 detected on the protein from E. coli (share not stated)): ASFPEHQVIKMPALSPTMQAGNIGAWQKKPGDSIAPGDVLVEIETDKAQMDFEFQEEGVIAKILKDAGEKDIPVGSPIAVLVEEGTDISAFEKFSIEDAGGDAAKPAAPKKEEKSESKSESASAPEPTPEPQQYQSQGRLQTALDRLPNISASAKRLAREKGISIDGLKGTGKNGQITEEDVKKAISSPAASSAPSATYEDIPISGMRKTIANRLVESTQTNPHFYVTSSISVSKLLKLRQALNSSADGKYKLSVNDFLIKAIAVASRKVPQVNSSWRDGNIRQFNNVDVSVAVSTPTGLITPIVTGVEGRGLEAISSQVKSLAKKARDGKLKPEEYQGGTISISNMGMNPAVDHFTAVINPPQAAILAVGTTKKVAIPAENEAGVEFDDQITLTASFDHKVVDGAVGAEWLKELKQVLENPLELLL

Chains of the proteins cited; added tags and fusions are not shown. Residues count along the entry.
UniProt A0A0J9UVG7, residues 27-326: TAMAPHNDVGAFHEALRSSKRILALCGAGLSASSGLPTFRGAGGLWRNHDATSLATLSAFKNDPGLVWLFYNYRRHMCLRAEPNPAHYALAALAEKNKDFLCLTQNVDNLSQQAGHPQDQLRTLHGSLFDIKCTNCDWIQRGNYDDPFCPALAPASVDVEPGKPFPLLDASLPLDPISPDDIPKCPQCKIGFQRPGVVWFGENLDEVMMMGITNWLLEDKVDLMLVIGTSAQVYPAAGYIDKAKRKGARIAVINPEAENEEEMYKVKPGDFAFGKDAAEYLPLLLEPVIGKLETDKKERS


Tests used:
[1] = target: T1, FoDLAT-MBP fusion protein (Fusarium oxysporum f. sp. lycopersici strain 4287); experiment: pull-down; 1 µg FoSir5-His mixed with 1 µg MBP or MBP-FoDLAT, 50 mM HEPES pH 7.5, 1 mM EDTA, 150 mM NaCl, 0.5 mM DTT, 0.8% glycerol, room temperature 1 hr; amylose resin; blot with anti-MBP and anti-His; both purified
[2] = target: FoSir5-GFP (Fusarium oxysporum f. sp. lycopersici strain 4287); experiment: co-IP; cell extracts of F. oxysporum transformants co-expressing FoDLAT-Flag with GFP or FoSir5-GFP; anti-GFP agarose; blot with anti-Flag and anti-GFP

binding [1] | binding [2] | Molecule
binds | – | FoSir5-His (from UniProt A0A0J9UVG7 27-326) (enzyme)
– | binds | FoDLAT-Flag (enzyme, UniProt A0A0D2Y5A7 31-457) ASFPEHQVIKMPALSPTMQAGNIGAWQKKPGDSIAPGDVLVEIETDKAQMDFEFQEEGVIAKILKDAGEKDIPVGSPIAVLVEEGTDISAFEKFSIEDAGGDAAKPAAPKKEEKSESKSESASAPEPTPEPQQYQSQGRLQTALDRLPNISASAKRLAREKGISIDGLKGTGKNGQITEEDVKKAISSPAASSAPSATYEDIPISGMRKTIANRLVESTQTNPHFYVTSSISVSKLLKLRQALNSSADGKYKLSVNDFLIKAIAVASRKVPQVNSSWRDGNIRQFNNVDVSVAVSTPTGLITPIVTGVEGRGLEAISSQVKSLAKKARDGKLKPEEYQGGTISISNMGMNPAVDHFTAVINPPQAAILAVGTTKKVAIPAENEAGVEFDDQITLTASFDHKVVDGAVGAEWLKELKQVLENPLELLL

Reference: paper PMC8730727
